Measured values: patent US20140024132A1, “METHODS AND SYSTEMS USING INTEGRATED METABOLOMICS AND PHARMACOKINETICS FOR MULTI-COMPONENT DRUG EVALUATION” (priority 2010, published 2014)

Tested on: endogenous urinary metabolite profiles
Assay: Altered endogenous urinary metabolites after a single Pu-erh tea intake, UPLC-QTOFMS and GC-TOFMS profiling
Type: in vivo
Settings: human urine
Method: Participants received a dose equivalent to 5 cups of commercially prepared tea. Twenty healthy men (n=10) and women (n=10) whose mean age was 25±2 years (range 22-32) were enrolled in this study, and written consent was obtained from each participant.
Volunteers were provided with identical standard meals three times per day during the experiment (e.g., breakfast: milk and bread; lunch: beef and vegetables; dinner: pork and cabbage). […] Urine samples were stored at −80° C. before analysis.
The tea infusion used in this study and the collected urine samples were centrifuged at 13,000 rpm for 10 min at 4° C., and the resulting supernatants were immediately stored at −80° C. pending UPLC-QTOFMS analysis. Ultrapure water (500 μL) was added to the tea or urine sample (500 μL) and vortexed for 1 min. The sample was then filtered through a syringe filter (0.22 μm) for UPLC-QTOFMS analysis.; incorporated by reference herein in its entirety.
The tea infusion (100 μL) described in Example 2 and urine samples (100 μL) were spiked with two internal standard solutions (10 μL-2-chlorophenylalanine in water, 0.3 mg/ml; 10 μL heptadecanoic acid in methanol, 1 mg/mL), and vortexed for 10 seconds. The mixed solution was extracted with 300 μL of methanol:chloroform (v/v 3:1) and vortexed for 30 seconds. After storing for 10 min at −20° C., the samples were centrifuged at 10,000 rpm for 10 min. An aliquot of the 300 μL supernatant was transferred to a glass sampling vial to vacuum dry at room temperature. The residue was derivatized using a two-step procedure. First, 80 μL methoxyamine (15 mg/mL in pyridine,) was added to the vial and kept at 30° C. for 90 min followed by 80 μL BSTFA (1% TMCS) at 70° C. for 60 min. See protocols set forth in Ni et al., FEBS Lett. 581: 707-711 (2007).; incorporated by reference herein in its entirety.
UPLC: Tea and urine metabolite profiling were performed using a Waters ACQUITY UPLC system equipped with a binary solvent delivery manager and a sample manager (Waters Corporation, Milford, Mass., USA), coupled to a Micromass Q-TOF Premier mass spectrometry equipped with an electrospray interface (Waters Corporation, Milford, M A, USA). Chromatographic separations were performed on a 2.1×100 mm 1.7 μm ACQUITY BEH C18 chromatography column. The column was maintained at 45° C. and eluted with a 1-99% acetonitrile (0.1% (v/v) formic acid)-aqueous formic acid (0.1% (v/v) formic acid) gradient over 10 min at a flow rate of 0.40 mL/min. A 5 μL aliquot sample was injected onto the column.
Mass Spectrometry: The mass accuracy analysis and detailed MS parameters were optimized according to our prior studies, which is incorporated herein in its entirety. During metabolite profiling experiments, centroid data was acquired for each sample from 50 to 1000 Da with a 0.10 sec scan time and a 0.01 sec interscan delay over a 10 min analysis time. A metabonomics MS System Test Mixture including acetaminophen, tolbutamide, 3′-azido-3′-deoxythymidine, reserpine, verapamil and coumarin was used as chromatographic reference and mass accuracy quality control. This test mixture was injected every ten injections. The mass spectrometer was operated in positive ion mode. The desolvation temperature was set to 400° C. at a flow rate of 700 L/hr and source temperature of 100° C. The capillary and cone voltages were set to 3500 and 45 V, respectively. The data was collected between 50-1000 m/z with alternating collision energy, at 5 eV for precursor ion information generation and a collision profile from 10-40 eV for fragment ion information. The Q-TOF Premier™ was operated in v mode with 10,000 mass resolving power. Data were centroided during acquisition using independent reference lock-mass ions via the LockSpray™ interface to ensure mass accuracy and reproducibility. Leucine-enkephalin was used as the reference compound at a concentration of 50 pg/μL and an infusion flow rate of 0.05 mL/min.

NCCC[C@H](N)C(=O)O [Ornithine]
FC (fold change) (1 h after Pu-erh tea intake vs pre-dose): 0.51
FC (fold change) (3 h after Pu-erh tea intake vs pre-dose): 0.33
FC (fold change) (6 h after Pu-erh tea intake vs pre-dose): 1.36
FC (fold change) (9 h after Pu-erh tea intake vs pre-dose): 4.29
FC (fold change) (12 h after Pu-erh tea intake vs pre-dose): 5.10
FC (fold change) (24 h after Pu-erh tea intake vs pre-dose): 2.90
